Among the data in paper PMC7239026 are binding values, retold here.

Amino acid sequences for entries named in this document (tags omitted). A change or cut given only in a name is not applied to a line headed by its entry.
UniProt P02452: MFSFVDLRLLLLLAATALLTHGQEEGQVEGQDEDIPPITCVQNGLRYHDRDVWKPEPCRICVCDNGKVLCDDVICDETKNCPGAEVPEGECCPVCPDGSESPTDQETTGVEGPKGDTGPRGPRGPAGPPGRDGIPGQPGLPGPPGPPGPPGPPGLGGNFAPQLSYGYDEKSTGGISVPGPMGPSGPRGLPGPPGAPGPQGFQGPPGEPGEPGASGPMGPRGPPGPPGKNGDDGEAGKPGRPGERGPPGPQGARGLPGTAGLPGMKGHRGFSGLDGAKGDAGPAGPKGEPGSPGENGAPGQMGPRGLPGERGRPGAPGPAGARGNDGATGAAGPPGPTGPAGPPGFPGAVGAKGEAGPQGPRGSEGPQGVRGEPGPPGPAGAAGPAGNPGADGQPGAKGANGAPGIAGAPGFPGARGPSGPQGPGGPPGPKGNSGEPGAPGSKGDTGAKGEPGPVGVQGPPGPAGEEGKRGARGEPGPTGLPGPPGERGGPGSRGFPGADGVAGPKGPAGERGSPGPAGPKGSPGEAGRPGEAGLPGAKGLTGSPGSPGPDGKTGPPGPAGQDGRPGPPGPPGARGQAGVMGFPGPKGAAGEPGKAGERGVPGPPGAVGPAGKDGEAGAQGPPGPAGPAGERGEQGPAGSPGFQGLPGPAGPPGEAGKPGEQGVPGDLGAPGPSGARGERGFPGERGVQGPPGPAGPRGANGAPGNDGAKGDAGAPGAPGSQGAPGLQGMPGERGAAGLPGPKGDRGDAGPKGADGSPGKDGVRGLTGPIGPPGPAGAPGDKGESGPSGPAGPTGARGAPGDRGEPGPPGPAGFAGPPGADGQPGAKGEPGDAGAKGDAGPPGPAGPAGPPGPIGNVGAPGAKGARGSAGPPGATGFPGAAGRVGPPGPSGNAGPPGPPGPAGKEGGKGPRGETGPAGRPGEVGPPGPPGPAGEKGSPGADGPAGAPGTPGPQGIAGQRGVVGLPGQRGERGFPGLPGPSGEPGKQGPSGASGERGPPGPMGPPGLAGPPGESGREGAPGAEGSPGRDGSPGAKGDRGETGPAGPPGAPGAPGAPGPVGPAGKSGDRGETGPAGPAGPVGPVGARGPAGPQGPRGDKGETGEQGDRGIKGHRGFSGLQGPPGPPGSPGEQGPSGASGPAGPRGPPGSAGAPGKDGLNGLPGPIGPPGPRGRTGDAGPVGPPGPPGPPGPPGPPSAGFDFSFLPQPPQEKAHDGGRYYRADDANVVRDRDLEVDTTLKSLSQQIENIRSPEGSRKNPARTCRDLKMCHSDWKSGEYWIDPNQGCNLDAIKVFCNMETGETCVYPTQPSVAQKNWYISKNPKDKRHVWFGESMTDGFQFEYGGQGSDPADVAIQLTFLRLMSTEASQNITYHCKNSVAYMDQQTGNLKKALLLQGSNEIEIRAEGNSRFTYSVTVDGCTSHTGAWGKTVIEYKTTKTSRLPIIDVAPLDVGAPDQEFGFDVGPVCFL

No constants are given. Whether binding was seen depends on the method and setting. Tags and fused reporters may be left off the sequences shown.

The assay concerns the target human type I collagen (human) (UniProt P02452). Kind of assay: ELISA; human glycoproteins coated on 96-well plates (5 ug/mL in 75 mM sodium carbonate buffer pH 9.6, 18 h at 4°C); blocked with 3% fish gelatin; rPepO (10 to 50 ug/mL) or rCnmA (0.125 to 2 ug/mL) in 50 mM HEPES pH 7.4, 150 mM NaCl, 2 mM CaCl2, 50 ug/mL BSA, 2 h at 37°C; bound protein detected with rabbit antiserum and peroxidase conjugate, A450 nm; wells with 1% BSA as control; both purified. (In general: An ELISA detects its analyte on a solid surface through an enzyme-linked reagent.)

B1: His-tagged PepO recombinant protein (rPepO), endopeptidase O of Streptococcus mutans (protein, UniProt I6L8Y4 1-631)
chain: MVRLQDDFYNAVNGQWEEAAVIPDDKPRTGGFSDLADDIEDLMLETTDKWLDGKDVPDDSILQNFVKFHRQVADYDAREETGVKPVLPLIEEYKSLTSFADFASNIATYEMAGKPNELPFGVAPDFMNAQMNVLWAEAPNLILPDTTYYAEGNDKGKELLAKWRTMQEELLPKFGFEEAEIKDLLDKVLTLDAKLAQYVLSSEESSEYVKLYHPYDWADFTKLTPELPLDAIFTQILGQKPDKVIVPEERFWTNFAAEFYSEKNWPFLKATLVLAAASSYNSYLTDDIRILSGSYNRALSGTPQAMGKKKAAFYLAQGPYNQALGLWYAGEKFSPEAKKDVEAKVATMIEVYKERLHKTDWLAQETRNKAITKLNVITPHIGYPEQLPKTYAQKIIDDNLSLVENAQNLAKISIAYNWSKWNQPVDRSEWHMPAHMVNAYYDPQQNQIVFPAAILQAPFYSLEQSSSANYGGIGAVIAHEISHAFDTNGASFDENGSLNNWWTDEDYAAFKKRTDRVVEQFEGLDSYGAKVNGQLTVSENVADLGGLACALEAAKREADFSVRDFFINFATIWRMKARDEYMQMLASIDVHAPAKWRTNVTITNFDEFHQEFAVKEGDGMWRDEDKRVIIW
With B1, the binding result was “no binding (tested: 10 to 50 µg/mL rPepO)”.
